Changes are numbered by the printed parent chain. In names and notes the source's numbering stands. No constants are given. Whether binding was seen depends on the method and setting. Some binding calls cover weakened binding; strength is not graded here. For part of these data: Tags and fused reporters may be left off the sequences shown.
T1: rhesus CD11a (rhesus) (UniProt H9Z8N3)
T1 sequence: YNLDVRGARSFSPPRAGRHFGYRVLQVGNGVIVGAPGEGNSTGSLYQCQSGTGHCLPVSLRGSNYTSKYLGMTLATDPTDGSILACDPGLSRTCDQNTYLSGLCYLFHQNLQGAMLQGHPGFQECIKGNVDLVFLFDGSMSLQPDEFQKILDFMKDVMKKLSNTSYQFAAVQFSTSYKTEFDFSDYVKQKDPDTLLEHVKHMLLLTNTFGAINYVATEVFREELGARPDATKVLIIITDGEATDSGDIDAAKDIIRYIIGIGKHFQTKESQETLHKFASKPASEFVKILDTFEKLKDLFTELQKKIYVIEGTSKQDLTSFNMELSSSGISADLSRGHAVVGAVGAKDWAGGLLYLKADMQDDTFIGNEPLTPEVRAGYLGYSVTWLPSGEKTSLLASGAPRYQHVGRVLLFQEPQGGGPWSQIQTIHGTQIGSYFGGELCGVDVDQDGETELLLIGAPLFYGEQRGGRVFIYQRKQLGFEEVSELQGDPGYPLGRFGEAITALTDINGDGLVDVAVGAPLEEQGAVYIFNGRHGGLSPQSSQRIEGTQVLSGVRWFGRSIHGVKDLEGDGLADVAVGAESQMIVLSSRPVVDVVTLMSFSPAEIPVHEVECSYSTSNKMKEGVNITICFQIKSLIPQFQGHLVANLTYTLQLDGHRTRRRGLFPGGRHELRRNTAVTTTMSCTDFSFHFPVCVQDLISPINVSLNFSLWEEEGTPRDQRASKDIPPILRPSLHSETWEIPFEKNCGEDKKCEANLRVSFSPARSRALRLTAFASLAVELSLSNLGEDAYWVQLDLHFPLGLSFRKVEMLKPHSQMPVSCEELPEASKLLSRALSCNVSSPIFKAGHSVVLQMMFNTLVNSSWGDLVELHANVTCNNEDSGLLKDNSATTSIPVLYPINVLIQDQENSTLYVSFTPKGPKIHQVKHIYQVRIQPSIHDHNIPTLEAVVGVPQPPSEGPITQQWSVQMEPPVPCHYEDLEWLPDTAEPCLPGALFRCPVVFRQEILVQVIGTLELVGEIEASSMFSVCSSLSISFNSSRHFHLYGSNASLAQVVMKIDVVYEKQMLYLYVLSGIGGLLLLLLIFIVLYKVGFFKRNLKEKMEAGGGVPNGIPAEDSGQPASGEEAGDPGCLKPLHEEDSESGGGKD

B1: rhesus-binding MHM24 RhIgG1 (antibody, V domains shown)
VH: EVQLVESGGGLVQPGGSLRLSCAASGYSFTGHWMNWVRQAPGKGLEWVGMIAPASSSTRYNQKFKDRFTISVDKSKNTLYLQMNSLRAEDTAVYYCARGIYFYGTTYFDYWGQGTLVTVSS
VL: DIQMTQSPSSLSASVGDRVTITCRASKTISKYLAWYQQKPGKAPKLLIYSGSTLQSGVPSRFSGSGSGTDFTLTISSLQPEDFATYYCQQHNEYPLTFGQGTKVEIKR
B2: H3B (antibody, human IgG1, V domains shown)
VH: B1 VH with A52H, A54S, S55D, S57E, T105A, T106A, Y107A
VL: DIQMTQSPSSLSASVGDRVTITCRASKTISKYLAWYQQKPGKAPKLLIYSGSTLQSGVPSRFSGSGSGTDFTLTISSLQPEDFATYYCQQHNEYPLTFGQGTKVEIK
B3: TyrH97Ala (antibody, human IgG1, V domains shown)
VH: B1 VH with A52H, A54S, S55D, S57E, Y101A
VL: B2 VL
B4: TyrH99Ala (antibody, human IgG1, V domains shown)
VH: B1 VH with A52H, A54S, S55D, S57E, Y103A
VL: B2 VL
B5: ThrH100aAla (antibody, human IgG1, V domains shown)
VH: B1 VH with A52H, A54S, S55D, S57E, T105A
VL: B2 VL
B6: ThrH100bAla (antibody, human IgG1, V domains shown)
VH: B1 VH with A52H, A54S, S55D, S57E, T106A
VL: B2 VL
B7: TyrH100cAla (antibody, human IgG1, V domains shown)
VH: B1 VH with A52H, A54S, S55D, S57E, Y107A
VL: B2 VL
B8: L2 (antibody, human IgG1, V domains shown)
VH: B1 VH with A52H, A54S, S55D, S57E
VL: B1 VL with S50A, S52A, T53A
B9: L3 (antibody, human IgG1, V domains shown)
VH: B1 VH with A52H, A54S, S55D, S57E
VL: B1 VL with N92A, E93A, Y94A
B10: HisL91Ala (antibody, human IgG1, V domains shown)
VH: B1 VH with A52H, A54S, S55D, S57E
VL: B1 VL with H91A
B11: H1 (antibody, human IgG1, V domains shown)
VH: B1 VH with S28A, T30A, H32A, A52H, A54S, S55D, S57E
VL: B2 VL
B12: TyrL94Ala (antibody, human IgG1, V domains shown)
VH: B1 VH with A52H, A54S, S55D, S57E
VL: B1 VL with Y94A
B13: SerH28Ala (antibody, human IgG1, V domains shown)
VH: B1 VH with S28A, A52H, A54S, S55D, S57E
VL: B2 VL
B14: AspH54Glu (antibody, human IgG1, V domains shown)
VH: B1 VH with A52H, A54S, S55E, S57E
VL: B2 VL
B15: AspH54Arg (antibody, human IgG1, V domains shown)
VH: B1 VH with A52H, A54S, S55R, S57E
VL: B2 VL
B16: AspH54His (antibody, human IgG1, V domains shown)
VH: B1 VH with A52H, A54S, S55H, S57E
VL: B2 VL
B17: AspH54Thr (antibody, human IgG1, V domains shown)
VH: B1 VH with A52H, A54S, S55T, S57E
VL: B2 VL
B18: AspH54Met (antibody, human IgG1, V domains shown)
VH: B1 VH with A52H, A54S, S55M, S57E
VL: B2 VL
B19: HisH32Ala (antibody, human IgG1, V domains shown)
VH: B1 VH with H32A, A52H, A54S, S55D, S57E
VL: B2 VL
B20: AspH54Leu (antibody, human IgG1, V domains shown)
VH: B1 VH with A52H, A54S, S55L, S57E
VL: B2 VL
B21: TrpH33Ala (antibody, human IgG1, V domains shown)
VH: B1 VH with W33A, A52H, A54S, S55D, S57E
VL: B2 VL
B22: H2B (antibody, human IgG1, V domains shown)
VH: B1 VH with A52H, A54S, S55A, S57A, R59A
VL: B2 VL
B23: HisH52Ser (antibody, human IgG1, V domains shown)
VH: B1 VH with A52S, A54S, S55D, S57E
VL: B2 VL
B24: SerH55Asn (antibody, human IgG1, V domains shown)
VH: B1 VH with A52H, A54S, S55D, S56N, S57E
VL: B2 VL
B25: LysH73Ala (antibody, human IgG1, V domains shown)
VH: B1 VH with A52H, A54S, S55D, S57E, K74A
VL: B2 VL

How the values were obtained:
rhesus CD11a (rhesus) [1] = molecular target: T1, rhesus CD11a (rhesus); assay: binding to rhesus peripheral blood lymphocytes
rhesus CD11a (rhesus) [2] = molecular target: T1, rhesus CD11a (rhesus); assay: saturation binding with and without 1 mg/ml human IgG1; adhesion assays
rhesus CD11a (rhesus) [3] = molecular target: T1, rhesus CD11a (rhesus); assay: saturation binding, rhesus leukocytes
rhesus CD11a (rhesus) [4] = molecular target: T1, rhesus CD11a (rhesus); assay: condition: greater than 10-fold weaker than HuIgG1 (EC50 45.6 nM); binding to rhesus peripheral blood lymphocytes

Binder	binding (rhesus CD11a (rhesus) [4])	other results
B1	–	binding (rhesus CD11a (rhesus) [1]): binds; binding (rhesus CD11a (rhesus) [2]): binds; binding (rhesus CD11a (rhesus) [3]): binds
B2	no binding	–
B3	no binding	–
B4	no binding	–
B5	no binding	–
B6	no binding	–
B7	no binding	–
B8	no binding	–
B9	no binding	–
B10	no binding	–
B11	no binding	–
B12	no binding	–
B13	no binding	–
B14	–	binding (rhesus CD11a (rhesus) [1]): no binding (tested: Variant EC50/HuIgG1 EC50 >25)
B15	–	binding (rhesus CD11a (rhesus) [1]): no binding (tested: Variant EC50/HuIgG1 EC50 >25)
B16	–	binding (rhesus CD11a (rhesus) [1]): no binding (tested: Variant EC50/HuIgG1 EC50 >25)
B17	–	binding (rhesus CD11a (rhesus) [1]): no binding (tested: Variant EC50/HuIgG1 EC50 >25)
B18	–	binding (rhesus CD11a (rhesus) [1]): no binding (tested: Variant EC50/HuIgG1 EC50 >25)
B19	no binding	–
B20	–	binding (rhesus CD11a (rhesus) [1]): no binding (tested: Variant EC50/HuIgG1 EC50 >25)
B21	no binding	–
B22	no binding	–
B23	no binding	–
B24	no binding	–
B25	no binding	–

Source: patent US20100136005A1
